Results are given in words; binding and its absence hold for the method and conditions named. Binding seen in cells or lysates may run through a third protein. Some results given as binding are weak or reduced against the parent protein; the word gives no strength.
T1: Nuclear factor E2-related factor 2 (NRF2) (goat (endogenous in gEECs))
T1 sequence: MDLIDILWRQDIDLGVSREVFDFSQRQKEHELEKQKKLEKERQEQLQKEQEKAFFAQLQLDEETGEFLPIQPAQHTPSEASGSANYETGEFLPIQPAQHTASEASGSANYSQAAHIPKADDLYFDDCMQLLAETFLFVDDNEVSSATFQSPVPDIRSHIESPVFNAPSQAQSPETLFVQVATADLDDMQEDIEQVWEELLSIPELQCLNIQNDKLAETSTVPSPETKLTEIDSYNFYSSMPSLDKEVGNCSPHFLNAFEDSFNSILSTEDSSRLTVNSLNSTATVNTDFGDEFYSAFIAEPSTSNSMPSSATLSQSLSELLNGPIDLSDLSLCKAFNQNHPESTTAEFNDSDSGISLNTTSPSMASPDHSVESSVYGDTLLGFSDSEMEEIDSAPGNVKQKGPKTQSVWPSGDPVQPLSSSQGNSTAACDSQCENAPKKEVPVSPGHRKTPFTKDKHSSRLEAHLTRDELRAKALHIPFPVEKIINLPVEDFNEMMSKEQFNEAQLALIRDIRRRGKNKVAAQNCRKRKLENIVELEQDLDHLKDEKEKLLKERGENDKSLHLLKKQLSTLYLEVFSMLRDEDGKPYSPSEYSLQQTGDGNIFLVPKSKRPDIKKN

Amino acid sequences for entries named in this document (tags omitted).
UniProt A0A452EP88: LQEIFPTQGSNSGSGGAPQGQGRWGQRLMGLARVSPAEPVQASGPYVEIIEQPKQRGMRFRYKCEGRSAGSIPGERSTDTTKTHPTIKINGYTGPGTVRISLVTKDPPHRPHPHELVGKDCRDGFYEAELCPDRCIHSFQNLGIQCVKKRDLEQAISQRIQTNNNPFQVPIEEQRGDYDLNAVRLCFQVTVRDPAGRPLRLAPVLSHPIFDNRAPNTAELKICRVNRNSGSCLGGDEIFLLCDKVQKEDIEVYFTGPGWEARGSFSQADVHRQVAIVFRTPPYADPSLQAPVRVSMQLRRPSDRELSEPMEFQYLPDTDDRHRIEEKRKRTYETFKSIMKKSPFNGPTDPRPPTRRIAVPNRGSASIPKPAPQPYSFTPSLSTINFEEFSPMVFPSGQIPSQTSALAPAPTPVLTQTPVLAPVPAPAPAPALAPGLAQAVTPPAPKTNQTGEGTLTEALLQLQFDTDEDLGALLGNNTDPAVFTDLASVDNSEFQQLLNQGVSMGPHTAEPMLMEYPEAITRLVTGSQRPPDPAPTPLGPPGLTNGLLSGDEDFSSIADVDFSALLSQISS
UniProt A0A452E2Q3: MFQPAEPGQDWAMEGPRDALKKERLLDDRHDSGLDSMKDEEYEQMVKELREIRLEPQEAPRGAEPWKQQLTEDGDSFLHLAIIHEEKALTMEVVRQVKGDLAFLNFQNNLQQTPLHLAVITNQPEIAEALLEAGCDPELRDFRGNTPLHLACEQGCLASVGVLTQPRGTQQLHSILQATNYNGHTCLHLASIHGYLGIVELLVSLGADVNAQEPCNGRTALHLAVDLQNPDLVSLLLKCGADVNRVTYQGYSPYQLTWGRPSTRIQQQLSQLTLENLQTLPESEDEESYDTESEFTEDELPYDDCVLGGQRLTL


Tests used:
[1] = target: T1, Nuclear factor E2-related factor 2 (NRF2) (goat (endogenous in gEECs)); test: co-IP; NRF2 (D1Z9C) antibody added to 200 μg protein of gEEC lysate (8 μg/mL LPS for 12 hours) for 12 hours at 4°C, protein A/G beads; rabbit IgG as negative control; immunoblotting with NRF2, TLR4, IκBα and p65 antibodies
[2] = target: NF-κB p65 (goat (endogenous in gEECs)); test: co-IP; p65 antibody on isolated nuclear and cytoplasmic proteins of gEECs (8 μg/mL LPS for 12 hours); result told for the nuclear fraction; immunoblotting with NRF2 antibody

Row | binding [1] | binding [2] | Molecule
1 | binds | – | NF-κB p65 (from UniProt A0A452EP88 1-571)
2 | no binding | – | IκBα (from UniProt A0A452E2Q3 1-314)
3 | – | binds | Nuclear factor E2-related factor 2 (NRF2) (protein, UniProt A0A0A7MB97 1-616) MDLIDILWRQDIDLGVSREVFDFSQRQKEHELEKQKKLEKERQEQLQKEQEKAFFAQLQLDEETGEFLPIQPAQHTPSEASGSANYETGEFLPIQPAQHTASEASGSANYSQAAHIPKADDLYFDDCMQLLAETFLFVDDNEVSSATFQSPVPDIRSHIESPVFNAPSQAQSPETLFVQVATADLDDMQEDIEQVWEELLSIPELQCLNIQNDKLAETSTVPSPETKLTEIDSYNFYSSMPSLDKEVGNCSPHFLNAFEDSFNSILSTEDSSRLTVNSLNSTATVNTDFGDEFYSAFIAEPSTSNSMPSSATLSQSLSELLNGPIDLSDLSLCKAFNQNHPESTTAEFNDSDSGISLNTTSPSMASPDHSVESSVYGDTLLGFSDSEMEEIDSAPGNVKQKGPKTQSVWPSGDPVQPLSSSQGNSTAACDSQCENAPKKEVPVSPGHRKTPFTKDKHSSRLEAHLTRDELRAKALHIPFPVEKIINLPVEDFNEMMSKEQFNEAQLALIRDIRRRGKNKVAAQNCRKRKLENIVELEQDLDHLKDEKEKLLKERGENDKSLHLLKKQLSTLYLEVFSMLRDEDGKPYSPSEYSLQQTGDGNIFLVPKSKRPDIKKN

From paper PMC8577927
